Source: ChEMBL document CHEMBL3988442, “University of Dundee, Small-Polar-MMV Screening Library” (2021).

The chains behind the UniProt entries cited, without tags or fusion partners.
UniProt E9BF75, entry or part of it: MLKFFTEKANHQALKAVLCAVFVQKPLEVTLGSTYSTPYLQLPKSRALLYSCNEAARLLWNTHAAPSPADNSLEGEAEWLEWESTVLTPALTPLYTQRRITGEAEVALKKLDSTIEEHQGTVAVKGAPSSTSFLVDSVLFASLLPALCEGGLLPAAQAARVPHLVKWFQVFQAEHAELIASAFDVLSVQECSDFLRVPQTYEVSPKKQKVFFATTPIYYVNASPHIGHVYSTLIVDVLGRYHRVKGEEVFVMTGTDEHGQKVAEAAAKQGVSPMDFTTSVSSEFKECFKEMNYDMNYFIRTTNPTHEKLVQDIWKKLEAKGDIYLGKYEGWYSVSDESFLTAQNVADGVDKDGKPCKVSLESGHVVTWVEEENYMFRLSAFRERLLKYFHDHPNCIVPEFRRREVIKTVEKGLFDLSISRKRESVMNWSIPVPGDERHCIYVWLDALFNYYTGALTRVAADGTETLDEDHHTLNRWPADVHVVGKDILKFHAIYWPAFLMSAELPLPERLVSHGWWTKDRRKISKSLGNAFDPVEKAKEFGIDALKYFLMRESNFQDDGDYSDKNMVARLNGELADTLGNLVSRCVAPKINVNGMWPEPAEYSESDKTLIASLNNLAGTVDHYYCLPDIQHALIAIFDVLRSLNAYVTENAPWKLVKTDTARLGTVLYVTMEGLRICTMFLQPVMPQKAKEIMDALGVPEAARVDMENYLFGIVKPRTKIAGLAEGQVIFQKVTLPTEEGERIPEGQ

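Primary screen of methionyl-tRNA synthetase; the read-out is not stated. Target: Methionyl-tRNA synthetase (putative), Leishmania donovani (UniProt E9BF75). The test concentration is not given. The values are filed as inhibition. Of about 68,000 compounds tested this way, about 24 (0.035%) reached 50% or more in at least one test.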

Results are percentages, as filed.
The controls that fix the scale are not given in the record; negative values are as filed.
This is an unselected part of the compounds tested.

SMILES,inhibition
CCOCC(=O)Nc1nccn1Cc1ccc(Br)cc1,4.632%
C[C@@H]1CN(C(=O)c2nc3sccn3c2-c2ncc[nH]2)C[C@H](C)O1,18.59%
O=C1CC2(CCN(CC3CCOC3)CC2)c2ccccc2N1CC1CC1 (stereo not shown),19.05%
Cc1cc(C2CCCN2C(=O)COc2ccc(CC#N)cc2)no1 (stereo not shown),2.997%
Cc1ccc2c(c1)c(Sc1ccccc1)c(CC(=O)O)n2C,-9.115%
CCc1nc(C)c(C(=O)N(C)Cc2cnc3ccccn23)o1,7.843%
Cc1nc(C)n(C2CCCN(C(=O)CCCc3ccccn3)C2)n1 (stereo not shown),11.11%
O=S1(=O)CCN(CCCc2ccc(Cl)cc2)CC1,13.48%
CS(=O)(=O)N1Cc2nccn2CC(CN2CCCC2)C1 (stereo not shown),7.216%
CCCN1CCC(c2nc3ccc(-c4cccc(OC)c4)cn3n2)CC1,9.384%
Cc1cc(C[C@@H]2COC[C@@H]2NC(=O)CNC(=O)N(C)C)on1,1.067%
Cn1cccc1C(=O)N1C[C@@H](OCc2cccnc2)[C@H]2OCCC[C@H]21,-1.961%
N#Cc1ccc(N2CCC3(CCC(=O)N3Cc3ccncc3)CC2)nc1,16.42%
COCCN1CCC(CNC(=O)c2cc(Cl)c[nH]2)CC1,9.309%
CC(C)n1c(=O)nc2n1C(=O)N(c1ccc(Br)cc1)C2,11.21%
O=C(N[C@@H]1CN(Cc2ccoc2)C[C@@H]2CCCO[C@@H]21)C1CCC1,7.235%
Cc1ccc(S(=O)(=O)NCC2CNCCOC2)cc1Cl (stereo not shown),5.645%
COc1ccccc1CNC(C)c1cnc2cc(C)nn2c1C (stereo not shown),11.59%
CS(=O)(=O)NCC1Cc2ccccc2O1 (stereo not shown),10.34%
COCC(=O)N1CCCn2c(CN3CCCCC3)nnc2C1,9.5%
CCC(NCCn1cccn1)C(=O)Nc1cc(C)on1 (stereo not shown),-0.9063%
CC(C)(C)CCNC(=O)c1ccc(Cl)c(NS(C)(=O)=O)c1,6.873%
O=C(CCn1cccn1)NCC(c1cccs1)N1CCOCC1 (stereo not shown),6.452%
COCCc1noc(Cn2ccc3ncccc3c2=O)n1,4.902%
Cc1n[nH]c(=O)c2c(NC(=O)CN3CCOC(C)C3)oc(C)c12 (stereo not shown),6.748%
CN(C)CCN1CC(C(=O)N2CCC(c3nccn3C)CC2)CC1=O (stereo not shown),13.66%
O=C(c1ccccn1)N1CC(S(=O)(=O)c2ccc(Cl)cc2)C1,9.485%
Cc1noc([C@H]2C[C@@H]3CCN(C(=O)C4CCOCC4)C[C@H]3O2)n1,11.78%
COCCS(=O)(=O)NC(=O)c1nnn(-c2ccc(F)cc2)c1C1CC1,3.297%
CC(C)OCCCNC(=O)NC(C)c1ccc(-n2cncn2)cc1 (stereo not shown),-4.01%
O=C1CC(c2ccc(F)cc2)Cc2[nH]c(=O)c(C(=O)O)cc21 (stereo not shown),14.81%
O=C(c1ccccn1)N1CCn2cnc(COCC3CC3)c2C1,6.863%
Cc1noc(C)c1CN1CC[C@@H](OCC2CC2)[C@@H](Cc2ccccc2)C1,13.59%
CCC(C)NC(=O)c1coc(COc2cccc(F)c2)n1 (stereo not shown),10.65%
CNCc1ccc([C@@H]2CN(C(C)=O)C[C@H]2C(=O)N(C)C)cc1,17.45%
O=C(c1ccccc1)N(CC1CC1)c1cccnc1,10.73%
O=C(C1CNCCO1)N1CCC(c2cc(N3CCCC3)ncn2)CC1 (stereo not shown),6.137%
CCOc1cccc(CNC(=O)C(C)(C)C#N)c1OC(F)F,11.55%
CCc1nc(C)c(C(=O)N2CCNCC2C(=O)NCc2ccncc2)o1 (stereo not shown),10.8%
C[C@H](NC(=O)c1cnc(-c2ccccc2)nc1O)C(N)=O,13.74%
CC(=O)Nc1ccc(CN2CCCC(c3cc4ncccc4[nH]3)C2)cc1 (stereo not shown),13.71%
CCc1nc(CN2CCN(C(=O)c3cnccn3)CC2)cs1,9.841%
Cc1cccc2c1C(=O)NC(c1cnc(C3CCC3)s1)N2 (stereo not shown),13.24%
CC(Nc1cnn(C)c(=O)c1Cl)c1ccc(F)cc1 (stereo not shown),18.13%
CC1CCCN(c2ncc(-c3ccccc3F)c(-c3nccn3C)n2)C1 (stereo not shown),12.79%
O=C(Nc1cnn(CCN2CCOCC2)c1)c1ccccn1,18.37%
CS(=O)(=O)N1C[C@@H]2CC[C@H](C1)N(C(=O)CCc1ccsc1)C2,10.12%
COc1ccc(S(=O)(=O)N2CCc3ccc(F)cc32)cc1C(=O)O,17.05%
COC(=O)C1CN(CC(=O)Nc2cc(F)ccc2F)c2ccccc21 (stereo not shown),-2.892%
O=C(NCCC1CN(Cc2c[nH]cn2)CCO1)c1ccccc1O (stereo not shown),2.749%
CC1Cn2c(nc3c2c(=O)[nH]c(=O)n3C)O1 (stereo not shown),4.037%
CCc1cc(NCCNC(C)=O)nc(N2CCCC2)n1,7.394%
Cc1ccccc1C(C)NC(=O)c1ccc(=O)n(C)c1 (stereo not shown),9.358%
Cc1cccc(CN2CCCC2c2cccc(Nc3nccs3)n2)c1 (stereo not shown),12.79%
CN(Cc1cnn(C)c1)C1CCCN(Cc2noc(C3CC3)n2)C1 (stereo not shown),4.79%
CC(=O)c1ccc(OCC(C)O)cc1O (stereo not shown),10%
O=C(NCCc1ccc(Cl)s1)NCc1nnc2n1CCCC2,8.571%
CS(=O)(=O)NC[C@H]1OC[C@@H]2CN(Cc3cccnc3)CC[C@@H]21,15.85%
CN(C)C(=O)Cn1cc(C(=O)NCCc2ccc(C(F)(F)F)cc2)nn1,10.5%
CC(=O)N1CCCC1c1cccc(C)c1C (stereo not shown),5.903%
CC(=O)N1CCC(c2nccnc2C)CC1,17.08%
CCSc1ncc(-c2cc(C3CC3)nc(N)c2C#N)cn1,22.06%
CC(=O)NCCNC(=O)NCc1ccc(-n2ccc(C(F)(F)F)n2)cc1,5.367%
c1ccc(-c2noc3c2CN(CC2CC2)CC3)cc1,16.26%
Cc1c(C)n(-c2ccccn2)c2nc3c(c(N)c12)CCCC3,17.84%
Cc1ncsc1CN(C)C(=O)C(CC(C)C)N1CCCCC1=O (stereo not shown),8.696%
Cc1cc(N2Cc3cnc(CC(C)C)nc3C2)nc(N)n1,9.415%
O=C(c1ccc(C2CCCN2)s1)N1CC=CC1 (stereo not shown),8.939%
COc1ccccc1N1CCN(CC[C@H](O)c2ccccc2)CC1=O,11.73%
CCN1CCC2(CCC1=O)CN(c1ccnc(SC)n1)CCN2C (stereo not shown),14.63%
O=C1NCC(C(=O)Nc2ncc(Cc3ccccc3)s2)N1 (stereo not shown),10.26%
CC(=O)N1CCCN(C(=O)NC(C)Cn2cccn2)CC1 (stereo not shown),5.828%
CCOc1ncccc1C(=O)N1CCCC(n2nc(C)cc2C)C1 (stereo not shown),14.99%
Cc1ccc(CNC(=O)CN2CCOC(Cn3cccn3)C2)s1 (stereo not shown),18.73%
CCOc1ncccc1CNC(=O)Nc1ccc(N(C)C)nc1,-1.742%
Cc1ccsc1CNC(=O)NC1CCCc2c1cnn2CCO (stereo not shown),18.54%
Cc1noc(CCNC(=O)c2ccc(Br)c(S(=O)(=O)N(C)C)c2)n1,6.806%
CC(C)(C)OC(=O)N1CCC[C@H](NCC2CCOCC2)C1,5.575%